Measured values published in the supplement of paper PMC4604168 (melanoma cell lines).
The list shows a part of the results. Single values are uncertain, as repeats are few or missing.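 The apoptosis fraction was the count of cleaved-PARP antibody-stained nuclei relative to all DNA-stained nuclei, imaged in 1,536-well plates. Screening doses were set so most cells survived, and baseline and induced cleaved-PARP levels vary greatly across cell lines.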

What was measured:
Assay in all cases: cleaved PARP positive nuclei fraction relative to DMSO control; melanoma cells; higher = more apoptosis
Conditions in all cases: library dose: low library concentration; 72 h
MZ2-MEL = tested on: MZ2-MEL
MeWo = tested on: MeWo
RPMI7951 = tested on: RPMI7951
RVH-421 = tested on: RVH-421
SkMel28 = tested on: SkMel28
SkMel2 = tested on: SkMel2
SkMel30 = tested on: SkMel30
SkMel5 = tested on: SkMel5
UACC257 = tested on: UACC257
UACC62 = tested on: UACC62

Row | Structure (SMILES) | cleaved PARP positive nuclei fraction (MZ2-MEL) [%] | cleaved PARP positive nuclei fraction (MeWo) [%] | cleaved PARP positive nuclei fraction (RPMI7951) [%] | cleaved PARP positive nuclei fraction (RVH-421) [%] | cleaved PARP positive nuclei fraction (SkMel28) [%] | cleaved PARP positive nuclei fraction (SkMel2) [%] | cleaved PARP positive nuclei fraction (SkMel30) [%] | cleaved PARP positive nuclei fraction (SkMel5) [%] | cleaved PARP positive nuclei fraction (UACC257) [%] | cleaved PARP positive nuclei fraction (UACC62) [%]
1 | CC1(C)CCC(c2ccc(Cl)cc2)=C(CN2CCN(c3ccc(C(=O)NS(=O)(=O)c4ccc(N[C@H](CCN5CCOCC5)CSc5ccccc5)c(S(=O)(=O)C(F)(F)F)c4)cc3)CC2)C1 + COc1cc(N2CCC(N3CCN(C)CC3)CC2)ccc1Nc1ncc(Cl)c(Nc2ccccc2S(=O)(=O)C(C)C)n1 [NVP-TAE684] (first compound 0.4 µM, partner dose 0.08 µM) | 257 | 500 | 123 | 101 | 101 | 292 | 71.2 | 494 | 149 | 130
2 | NC(=O)c1ccc(N(C(N)=O)c2c(F)cccc2F)nc1-c1ccc(F)cc1F + Cn1cncc1[C@@](N)(c1ccc(Cl)cc1)c1ccc2c(c1)c(-c1cccc(Cl)c1)cc(=O)n2C [tipifarnib] (first compound 0.4 µM, partner dose 0.01 µM) | 95.5 | 86.8 | 160 | 73 | 189 | 75.7 | 241 | 63.5 | 166 | 61.6
3 | C[C@]1(O)C[C@@H](c2nc(-c3ccc4ccc(-c5ccccc5)nc4c3)c3c(N)nccn32)C1 + Cc1cc(N2CCOCC2)cc2[nH]c(-c3c(NC[C@@H](O)c4cccc(Cl)c4)cc[nH]c3=O)nc12 [BMS536924] (first compound 0.4 µM, partner dose 0.2 µM) | 117 | 23.5 | 129 | 84.1 | 285 | 146 | 64.7 | 67.1 | 109 | 112
4 | C[C@]1(O)C[C@@H](c2nc(-c3ccc4ccc(-c5ccccc5)nc4c3)c3c(N)nccn32)C1 + Cn1cncc1[C@@](N)(c1ccc(Cl)cc1)c1ccc2c(c1)c(-c1cccc(Cl)c1)cc(=O)n2C [tipifarnib] (first compound 0.4 µM, partner dose 0.01 µM) | 69.7 | 470 | 122 | 58.9 | 24.7 | 189 | 79.4 | 54.5 | 42.9 | 66.2
5 | CS(=O)(=O)c1ccc(C(=O)Nc2ccc(Cl)c(-c3ccccn3)c2)c(Cl)c1 [vismodegib] + COc1ccc(-c2ccc3c(N4CCOCC4)nc(N4C[C@@H](C)O[C@@H](C)C4)nc3n2)cc1CO [KU0063794] (first compound 1 µM, partner dose 0.02 µM) | 67.8 | 239 | 42.7 | 248 | 110 | 111 | 56.7 | 75.8 | 131 | 114
6 | C[C@@H](N)c1ccc(C(=O)Nc2ccnc3[nH]ccc23)cc1 + O=c1cc(-c2cccc3c2Sc2ccccc2S3)oc(N2CCOCC2)c1 [KU55933] (first compound 0.4 µM, partner dose 1 µM) | 177 | 156 | 89.7 | 182 | 219 | 59 | 64.1 | 82.4 | 185 | 206
7 | Cn1cnc2c(F)c(Nc3ccc(Br)cc3Cl)c(C(=O)NOCCO)cc21 [selumetinib] + O=S(=O)(c1ccccc1)N(CC(F)(F)F)c1ccc(C(O)(C(F)(F)F)C(F)(F)F)cc1 [T0901317] (first compound 0.015 µM, partner dose 1.4 µM) | 93.8 | 54.9 | 151 | 334 | 94.2 | 46.3 | 38 | 66.8 | 160 | 256
8 | CC(=O)O[C@@]12CO[C@@H]1C[C@H](O)[C@@]1(C)C(=O)[C@H](O)C3=C(C)[C@@H](OC(=O)[C@H](O)[C@@H](NC(=O)OC(C)(C)C)c4ccccc4)C[C@@](O)([C@@H](OC(=O)c4ccccc4)[C@H]21)C3(C)C [Docetaxel] + NCC(=O)Nc1ccc(-n2nc(C(F)(F)F)cc2-c2ccc3c(ccc4ccccc43)c2)cc1 [OSU03012] (first compound 0.0001 µM, partner dose 1 µM) | 624 | 657 | 486 | 139 | 421 | 817 | 176 | 572 | 510 | 186
9 | Cn1cnc2c(F)c(Nc3ccc(Br)cc3Cl)c(C(=O)NOCCO)cc21 [selumetinib] + CCc1ccc(CCOc2ccc(CC3SC(=O)NC3=O)cc2)nc1 [pioglitazone] (first compound 0.015 µM, partner dose 2 µM) | 361 | 112 | 90.1 | 129 | 104 | 48.7 | 51.7 | 147 | 90.5 | 183
10 | CC(=O)O[C@@]12CO[C@@H]1C[C@H](O)[C@@]1(C)C(=O)[C@H](O)C3=C(C)[C@@H](OC(=O)[C@H](O)[C@@H](NC(=O)OC(C)(C)C)c4ccccc4)C[C@@](O)([C@@H](OC(=O)c4ccccc4)[C@H]21)C3(C)C [Docetaxel] + O=c1cc(-c2cccc3c2Sc2ccccc2S3)oc(N2CCOCC2)c1 [KU55933] (first compound 0.0001 µM, partner dose 1 µM) | 676 | 235 | 242 | 205 | 666 | 409 | 375 | 86.7 | 476 | 870
11 | CC1(C)CCC(c2ccc(Cl)cc2)=C(CN2CCN(c3ccc(C(=O)NS(=O)(=O)c4ccc(N[C@H](CCN5CCOCC5)CSc5ccccc5)c(S(=O)(=O)C(F)(F)F)c4)cc3)CC2)C1 + COc1ccc(COc2ccc(Cc3cnc(N)nc3N)cc2OC)cc1 [GW2580] (first compound 0.4 µM, partner dose 1 µM) | 424 | 516 | 110 | 135 | 193 | 219 | 76.8 | 214 | 125 | 112
12 | Cn1cnc2c(F)c(Nc3ccc(Br)cc3Cl)c(C(=O)NOCCO)cc21 [selumetinib] + CC(C)(C)c1cnc(CSc2cnc(NC(=O)C3CCNCC3)s2)o1 [SNS-032] (first compound 0.015 µM, partner dose 0.01 µM) | 332 | 58.1 | 143 | 99.1 | 60.1 | 95.7 | 75.2 | 216 | 190 | 147
13 | CS(=O)(=O)c1ccc(C(=O)Nc2ccc(Cl)c(-c3ccccn3)c2)c(Cl)c1 [vismodegib] + O=C1NC(=O)/C(=C/c2ccc(-c3ccc(F)cc3O)o2)S1 [AS252424] (first compound 1 µM, partner dose 1 µM) | 128 | 56.7 | 75.4 | 91.3 | 33.1 | 39.6 | 54.5 | 77.1 | 207 | 101
14 | CCN(CC)CCNC(=O)c1c(C)[nH]c(/C=C2\C(=O)Nc3ccc(F)cc32)c1C [sunitinib] + Oc1nc(-c2ccc(C(F)(F)F)cc2)nc2c1CSCC2 [XAV939] (first compound 0.4 µM, partner dose 2 µM) | 48 | 437 | 64.5 | 56.6 | 360 | 99.9 | 103 | 103 | 113 | 380
15 | NC(=O)c1ccc(N(C(N)=O)c2c(F)cccc2F)nc1-c1ccc(F)cc1F + COc1ccc2c(c1)CCC1C2CCC2(C)C(NCCCCCCN3C(=O)C=CC3=O)CCC12 [U73122] (first compound 0.4 µM, partner dose 0.4 µM) | 102 | 82.9 | 275 | 107 | 176 | 132 | 164 | 209 | 148 | 117
16 | CCCCCCCCc1ccc(CCC(N)(CO)CO)cc1 [fingolimod] + OCCn1cc(-c2cnc3nnn(Cc4ccc5ncccc5c4)c3n2)cn1 [PF04217903] (first compound 2 µM, partner dose 1 µM) | 233 | 34.6 | 68.9 | 53.3 | 605 | 88.8 | 70.1 | 126 | 33.8 | 237
17 | CN(c1ncccc1CNc1nc(Nc2ccc3c(c2)CC(=O)N3)ncc1C(F)(F)F)S(C)(=O)=O + Cn1cncc1[C@@](N)(c1ccc(Cl)cc1)c1ccc2c(c1)c(-c1cccc(Cl)c1)cc(=O)n2C [tipifarnib] (first compound 0.08 µM, partner dose 0.01 µM) | 61.6 | 96.5 | 199 | 107 | 127 | 156 | 60.7 | 97.6 | 86.7 | 77.8
18 | COc1ccc(C2=N[C@@H](c3ccc(Cl)cc3)[C@@H](c3ccc(Cl)cc3)N2C(=O)N2CCNC(=O)C2)c(OC(C)C)c1 [Nutlin-3] + COC(=O)c1sccc1S(=O)(=O)Nc1ccc(Nc2ccccc2)cc1OC [GSK0660] (first compound 0.1 µM, partner dose 1 µM) | 41.3 | 85.4 | 38.5 | 153 | 104 | 115 | 70 | 78.1 | 190 | 116
19 | CS(=O)(=O)c1ccc(C(=O)Nc2ccc(Cl)c(-c3ccccn3)c2)c(Cl)c1 [vismodegib] + COc1cc(N2CCC(N3CCN(C)CC3)CC2)ccc1Nc1ncc(Cl)c(Nc2ccccc2S(=O)(=O)C(C)C)n1 [NVP-TAE684] (first compound 1 µM, partner dose 0.08 µM) | 137 | 347 | 111 | 154 | 230 | 152 | 24.9 | 84 | 495 | 139
20 | COc1ccc(C2=N[C@@H](c3ccc(Cl)cc3)[C@@H](c3ccc(Cl)cc3)N2C(=O)N2CCNC(=O)C2)c(OC(C)C)c1 [Nutlin-3] + O=C(CCCCCCC(=O)Nc1ccccc1)NO [vorinostat] (first compound 0.1 µM, partner dose 0.08 µM) | 161 | 218 | 47.4 | 97.6 | 120 | 85.4 | 61.2 | 33.6 | 44.6 | 76.9
21 | NC(=O)c1ccc(N(C(N)=O)c2c(F)cccc2F)nc1-c1ccc(F)cc1F + CN(NC(=O)CC(=O)NN(C)C(=S)c1ccccc1)C(=S)c1ccccc1 [STA4783] (first compound 0.4 µM, partner dose 0.006 µM) | 272 | 203 | 113 | 124 | 79.6 | 73.1 | 66.4 | 149 | 170 | 77.5

A run of entries from further up:
Row | Structure (SMILES) | cleaved PARP positive nuclei fraction (MZ2-MEL) [%] | cleaved PARP positive nuclei fraction (MeWo) [%] | cleaved PARP positive nuclei fraction (RPMI7951) [%] | cleaved PARP positive nuclei fraction (RVH-421) [%] | cleaved PARP positive nuclei fraction (SkMel28) [%] | cleaved PARP positive nuclei fraction (SkMel2) [%] | cleaved PARP positive nuclei fraction (SkMel30) [%] | cleaved PARP positive nuclei fraction (SkMel5) [%] | cleaved PARP positive nuclei fraction (UACC257) [%] | cleaved PARP positive nuclei fraction (UACC62) [%]
18 | COc1ccc(C2=N[C@@H](c3ccc(Cl)cc3)[C@@H](c3ccc(Cl)cc3)N2C(=O)N2CCNC(=O)C2)c(OC(C)C)c1 [Nutlin-3] + COC(=O)c1sccc1S(=O)(=O)Nc1ccc(Nc2ccccc2)cc1OC [GSK0660] (first compound 0.1 µM, partner dose 1 µM) | 41.3 | 85.4 | 38.5 | 153 | 104 | 115 | 70 | 78.1 | 190 | 116
19 | CS(=O)(=O)c1ccc(C(=O)Nc2ccc(Cl)c(-c3ccccn3)c2)c(Cl)c1 [vismodegib] + COc1cc(N2CCC(N3CCN(C)CC3)CC2)ccc1Nc1ncc(Cl)c(Nc2ccccc2S(=O)(=O)C(C)C)n1 [NVP-TAE684] (first compound 1 µM, partner dose 0.08 µM) | 137 | 347 | 111 | 154 | 230 | 152 | 24.9 | 84 | 495 | 139
